{"source": "PubChem BioAssay AID1259415", "about": "(National Center for Advancing Translational Sciences (NCATS), 2018)", "note": "Out of some 410,000 compounds screened, about 18,000 (4.4%) were called active. Inconclusive results, whose numbers are uncertain, are shown with a selection of clear calls. No stated cut-off is given here; in the data, active means activity change below about -60%; inconclusive means no clear call, values can overlap the other calls; inactive means above about -39%. On the % scale 0 is the no-effect control and ±100 the full control effect."}
{"test": "qHTS Assay for inhibitors of the human cytomegalovirus (HCMV)", "settings": "HFF cells, HCMV-luciferase reporter, 72 h; at 57.5 µM; stronger effect = lower value", "summary_of_the_method": "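Inhibition of viral replication was scored as loss of reporter luminescence in HFFs infected with HCMV-luciferase (MOI 1 PFU/cell) for 72 h; compounds tested at 2 doses, normalized to buffer and Salinomycin controls.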"}
{"smiles": "Cn1c(=O)n(Cc2ccccc2Cl)c2ccccc21", "activity change, negative = inhibition": "inconclusive: -42.9%"}
{"smiles": "O=C(CCl)N(CCCNC(=O)C(F)(F)F)c1ccc([N+](=O)[O-])cc1", "activity change, negative = inhibition": "active: -101%"}
{"smiles": "O=C(Nc1cc(Cl)ccc1F)C1=COCCO1", "activity change, negative = inhibition": "inconclusive: -46.4%"}
{"smiles": "O=C(CN1CCCc2ccccc21)Nc1cccc(S(=O)(=O)N2CCOCC2)c1", "activity change, negative = inhibition": "inactive: 12.4%"}
{"smiles": "COCCCNC(=S)Nc1ccc(OC(F)F)cc1C", "activity change, negative = inhibition": "inconclusive: -54.7%"}
{"smiles": "COc1ccc(OCCCC(=O)Nc2nccs2)cc1", "activity change, negative = inhibition": "inconclusive: -45.5%"}
{"smiles": "COc1ccc(Cl)cc1-n1c(C)cc(C(=O)OCC(=O)N2CC(=O)Nc3ccccc32)c1C", "activity change, negative = inhibition": "inconclusive: -49.1%"}
{"smiles": "CC1CCCC(C)N1C(=O)Cn1c(SCC(=O)Nc2ccc3c(c2)OCO3)nc2ccccc21", "note": "(centres undefined)", "activity change, negative = inhibition": "inconclusive: -53.9%"}
{"smiles": "Cc1ccc2c(CN3CCN(Cc4ccccc4Cl)CC3)cc(=O)oc2c1", "activity change, negative = inhibition": "inactive: -30.1%"}
{"smiles": "Cc1cccc(Nc2nnc(-c3ccc(C)c(S(=O)(=O)NCC4CCCO4)c3)c3ccccc23)c1", "note": "(centres undefined)", "activity change, negative = inhibition": "inconclusive: -42%"}
{"smiles": "CCOC(=O)CCCNC(=O)COC(=O)[C@@H]1CCCN1S(=O)(=O)c1ccc(Cl)cc1", "activity change, negative = inhibition": "inconclusive: -40.5%"}
{"smiles": "O=C(CSc1ccc(-c2ccco2)nn1)N1CCCCCC1", "activity change, negative = inhibition": "inactive: 33.5%"}
{"smiles": "CC(C)N1CCN(c2ccc(O)cc2)CC1", "activity change, negative = inhibition": "inconclusive: -41.6%"}
{"smiles": "CCc1ccc(N2C(=O)NC(=O)/C(=C/c3cccn3CCOc3ccc(C(C)CC)cc3)C2=O)cc1", "note": "(centres undefined)", "activity change, negative = inhibition": "inconclusive: -50%"}
{"smiles": "COc1ccc(C2(CNC(C)=O)CCOCC2)cc1OC", "activity change, negative = inhibition": "inconclusive: -49.5%"}
{"smiles": "Cc1ccc(C)c(NC(=O)CCCCCN2C(=O)[C@@H]3Cc4ccccc4CN3C2=O)c1", "activity change, negative = inhibition": "inconclusive: -40.1%"}
{"smiles": "CN(C)c1ccc(CNC(=O)CN2C(=O)COc3ccc(S(=O)(=O)N4CCCC4)cc32)cc1", "activity change, negative = inhibition": "inconclusive: -42.8%"}
{"smiles": "CCOC(=O)c1ccc(NC(=O)CCC(=O)N2Cc3ccccc3Oc3ncccc32)cc1", "activity change, negative = inhibition": "inactive: -16%"}
{"smiles": "CC1CCC(C(C)C)C(OC(=O)CSc2nccc(=O)[nH]2)C1", "note": "(centres undefined)", "activity change, negative = inhibition": "inactive: -26.8%"}
{"smiles": "COc1cccc(CNC(=O)N2CCN(c3ccccc3Cl)CC2)c1", "activity change, negative = inhibition": "inconclusive: -40.8%"}
{"smiles": "Cc1cc(OCc2nn[nH]n2)c2c(C)c(Cc3ccccc3)c(=O)oc2c1", "activity change, negative = inhibition": "inconclusive: -40.1%"}
{"smiles": "Cc1cc(NC(=O)CSc2nc(C3CCCCC3)nc3ccccc23)no1", "activity change, negative = inhibition": "active: -76.3%"}
{"smiles": "Cc1ccc(C(=O)CSc2cc(C)[nH]c(=O)n2)cc1", "activity change, negative = inhibition": "inactive: 82%"}
{"smiles": "CCOC(=O)c1c(NC(=O)c2ccc(S(=O)(=O)N3CCC(C)CC3)cc2)sc2c1CCN(CC)C2", "activity change, negative = inhibition": "active: -81.8%"}
{"smiles": "O=[N+]([O-])c1cccnc1N/N=C/c1ccccc1O", "activity change, negative = inhibition": "active: -97.1%"}
{"smiles": "COc1ccccc1N(CC(=O)N1CCC(C(N)=O)CC1)S(=O)(=O)c1ccccc1", "activity change, negative = inhibition": "inconclusive: -40.6%"}
{"smiles": "CN(CC(=O)N1CCCCCC1)S(=O)(=O)c1cccc2cccnc12", "activity change, negative = inhibition": "inactive: -0.573%"}
{"smiles": "Cc1ccc(-c2nc(C=Nc3ccc(O)cc3)c(O)o2)cc1", "activity change, negative = inhibition": "inconclusive: -56.7%"}
{"smiles": "O=C(Nc1ccc(C(F)(F)F)cc1Cl)c1ccc(Cn2cc(Br)cn2)o1", "activity change, negative = inhibition": "inconclusive: -59.8%"}
{"smiles": "Brc1ccc(CNc2ccc3ncccc3c2)cc1", "activity change, negative = inhibition": "inactive: -25.6%"}
{"smiles": "Cn1nc(-c2ccccc2F)c2cc(C(=O)NCCc3ccc(Cl)cc3)sc21", "activity change, negative = inhibition": "inconclusive: -41.8%"}
{"smiles": "Cc1cccc(C(=O)Nc2scc(CC(C)C)c2C(=O)O)c1", "activity change, negative = inhibition": "inactive: 9.28%"}
{"smiles": "CCn1c(SCC(=O)Nc2cc(C)on2)nc2sc3c(c2c1=O)CCCC3", "activity change, negative = inhibition": "inconclusive: -53.1%"}
{"smiles": "CCCNc1cc(C)c(C#N)c2nc3ccccc3n12", "activity change, negative = inhibition": "inconclusive: -52.4%"}
{"smiles": "c1ccc(COc2ccc(-c3cc4nc(NCc5ccc6c(c5)OCO6)ccn4n3)cc2)cc1", "activity change, negative = inhibition": "active: -64.1%"}
{"smiles": "CCCN(CCC)CCCNC(=O)c1ccc(CS(=O)(=O)c2c(Cl)cccc2Cl)o1", "activity change, negative = inhibition": "inconclusive: -44.6%"}
{"smiles": "CCOc1ccc(C(O)C(CN2CCOCC2)c2ccccc2)cc1", "note": "(centres undefined)", "activity change, negative = inhibition": "inconclusive: -49.9%"}
{"smiles": "CC(SCc1ccc(C(=O)O)o1)c1ccc(C(=O)O)o1", "note": "(centres undefined)", "activity change, negative = inhibition": "inconclusive: -49.1%"}
{"smiles": "COc1ccc(NC(=O)CSc2nc3ccc(Nc4nc(N5CCOCC5)nc(N5CCOCC5)n4)cc3s2)cc1", "activity change, negative = inhibition": "inconclusive: -46.3%"}
{"smiles": "CCOc1cc2[nH]c(=O)n(CCCCC(=O)N3CCN(c4cccc(Cl)c4)CC3)c(=O)c2cc1OCC", "activity change, negative = inhibition": "inactive: 6.7%"}
{"smiles": "CCOC(=O)c1c(-c2ccc(F)cc2)csc1/N=C/N(C)C", "activity change, negative = inhibition": "inconclusive: -55.3%"}
{"smiles": "COc1ccc(N=Nc2c(C)[nH][nH]c2=O)cc1", "activity change, negative = inhibition": "inactive: 12%"}
{"smiles": "Cc1cc(C)nc(NC(=O)c2ccc(Br)cc2)n1", "activity change, negative = inhibition": "inactive: 46.9%"}
{"smiles": "Cc1ccc(NC(=O)C(=O)NCC(c2cccnc2)N2CCN(c3ccccc3F)CC2)cc1Cl", "note": "(centres undefined)", "activity change, negative = inhibition": "inactive: 2.13%"}
